Experimental findings from patent US10064926B2, “Peptides and combination of peptides for use in immunotherapy against hepatocellular carcinoma (HCC) and other cancers” (Immatics biotechnologies GmbH, priority 2014, dated 2018) are described below.

The test system of one data set is tumor samples of other tumor types. The data set is described as follows: Over-presentation of peptides on additional tumor types versus normal tissues (LC-MS). Also on record: species or system human. The settings on record: over-presentation on more than 5% of the measured tumor samples, or presentation on more than 5% with ratio of geometric means tumor vs normal tissues larger than 3.
Regarding “34 (SLAEGTATV; listed as Homo sapiens) [compound 34]”, the “Other relevant organs/diseases (additional tumor types on which the peptide was found over-presented)” value is given as “Colon, Rectum”.

As for “225 (KMDPVAYRV; listed as Homo sapiens) [compound 225]”, the “Additional Entities (additional tumor types on which the peptide was found over-presented)” value was “CRC, PrC, BRCA, Urinary bladder cancer, Uterine Cancer”.

With “249 (LLLGERVAL; listed as Homo sapiens) [compound 249]”, the “Other relevant organs/diseases (additional tumor types on which the peptide was found over-presented)” value is listed as “Colon, Rectum”.

Consider “147 (GLAPGGLAVV; listed as Homo sapiens) [compound 147]”, for which the “Additional Entities (additional tumor types on which the peptide was found over-presented)” value is recorded as “NSCLC, SCLC, PrC, BRCA, Melanoma, OC, Esophageal Cancer, Urinary bladder cancer, Uterine Cancer” and the “Other relevant organs/diseases (additional tumor types on which the peptide was found over-presented)” value is “Brain”.

“77 (LLHEENFSV; listed as Homo sapiens) [compound 77]”: the “Additional Entities (additional tumor types on which the peptide was found over-presented)” value is “NSCLC, SCLC, OC, Esophageal Cancer, Urinary bladder cancer, Uterine Cancer, Gallbladder Cancer, Bile Duct Cancer, NHL” and the “Other relevant organs/diseases (additional tumor types on which the peptide was found over-presented)” value was “Kidney, Colon, Rectum”.

Regarding “227 (ALLKVNQEL; listed as Homo sapiens) [compound 227]”, the “Additional Entities (additional tumor types on which the peptide was found over-presented)” value is on record as “Melanoma, Uterine Cancer”.

For the substance “243 (GLLDNPELRV; listed as Homo sapiens) [compound 243]”, the “Additional Entities (additional tumor types on which the peptide was found over-presented)” value is on record as “Urinary bladder cancer”.

As to “299 (ALLRVTPFI; listed as Homo sapiens) [compound 299]”, the “Additional Entities (additional tumor types on which the peptide was found over-presented)” value was “NHL, OC” and the “Other relevant organs/diseases (additional tumor types on which the peptide was found over-presented)” value is listed as “CLL”.

For the substance “157 (QLLPNLRAV; listed as Homo sapiens) [compound 157]”, the “Additional Entities (additional tumor types on which the peptide was found over-presented)” value is “RCC”.

Regarding “344 (VYISSLALL; listed as Homo sapiens) [compound 344]”, the “Additional Entities (additional tumor types on which the peptide was found over-presented)” value was “NSCLC, GC, CRC” and the “Other relevant organs/diseases (additional tumor types on which the peptide was found over-presented)” value is recorded as “Brain”.

As for “296 (SLLSGRISTL; listed as Homo sapiens) [compound 296]”, the “Additional Entities (additional tumor types on which the peptide was found over-presented)” value was “BRCA, Urinary bladder cancer” and the “Other relevant organs/diseases (additional tumor types on which the peptide was found over-presented)” value was “Kidney”.

With “36: peptide found in ACLY (gene looked up) (ILNVDGLIGV; listed as Homo sapiens) [compound 36]”, the “Additional Entities (additional tumor types on which the peptide was found over-presented)” value is “NSCLC, SCLC, PrC, Melanoma, OC, Urinary bladder cancer, Uterine Cancer, Gallbladder Cancer, Bile Duct Cancer, NHL, PC” and the “Other relevant organs/diseases (additional tumor types on which the peptide was found over-presented)” value was “Kidney, Brain, Colon, Rectum”.

“235 (KLFEEIREI; listed as Homo sapiens) [compound 235]”: the “Additional Entities (additional tumor types on which the peptide was found over-presented)” value is recorded as “NSCLC, CRC, Melanoma, Urinary bladder cancer”.

Regarding “321 (GVIAEILRGV; listed as Homo sapiens) [compound 321]”, the “Other relevant organs/diseases (additional tumor types on which the peptide was found over-presented)” value is “Kidney, Brain”.

Take “291 (QLIDYERQL; listed as Homo sapiens) [compound 291]”: the “Other relevant organs/diseases (additional tumor types on which the peptide was found over-presented)” value is given as “Kidney, Colon, Rectum, Pancreas”.

With “45 (ALQDQLVLV; listed as Homo sapiens) [compound 45]”, the “Additional Entities (additional tumor types on which the peptide was found over-presented)” value is on record as “SCLC, Brain Cancer”.

Turning to “80 (LLYEGKLTL; listed as Homo sapiens) [compound 80]”, the “Other relevant organs/diseases (additional tumor types on which the peptide was found over-presented)” value is “Colon, Rectum”.

Regarding “166 (SILDIVTKV; listed as Homo sapiens) [compound 166]”, the “Additional Entities (additional tumor types on which the peptide was found over-presented)” value is “SCLC, CLL, MCC, Melanoma, Urinary bladder cancer, AML” and the “Other relevant organs/diseases (additional tumor types on which the peptide was found over-presented)” value is “Brain”.

Turning to “300 (TLAQQPTAV; listed as Homo sapiens) [compound 300]”, the “Additional Entities (additional tumor types on which the peptide was found over-presented)” value is listed as “Urinary bladder cancer, Uterine Cancer, Gallbladder Cancer, Bile Duct Cancer, NHL” and the “Other relevant organs/diseases (additional tumor types on which the peptide was found over-presented)” value was “Pancreas”.

Another data set has as its system primary HCC tissue samples. Kind of data set: Identification and label-free LC-MS relative quantitation of HLA-presented peptides (presentation profiles/scores), HCC versus normal tissues. The settings on record: FIG. 1 presentation profiles. Also on record: species or system human; key to PeptidePresentation (presentation score): very highly over-presented on tumors compared to a panel of normal tissues (+++); highly over-presented on tumors compared to a panel of normal tissues (++); over-presented on tumors compared to a panel of normal tissues (+).
Turning to “2 (KLQAGTVFV; listed as Homo sapiens) [compound 2]”, the “over-presentation in HCC compared with normal tissues” value is recorded as “over-presentation”.

With “200 (AYLLQPSQF; listed as Homo sapiens) [compound 200]”, the “over-presentation in HCC compared with normal tissues” value is “over-presentation”.

Still in this data set, the particulars now being: HCC tumors compared to a panel of normal tissues.
In the case of “146 (FLWTEQAHTV; listed as Homo sapiens) [compound 146]”, the “PeptidePresentation (presentation score)” value was “+”.

Regarding “34 (SLAEGTATV; listed as Homo sapiens) [compound 34]”, the “PeptidePresentation (presentation score)” value was “+++”.

As to “225 (KMDPVAYRV; listed as Homo sapiens) [compound 225]”, the “PeptidePresentation (presentation score)” value is “+”.

Turning to “249 (LLLGERVAL; listed as Homo sapiens) [compound 249]”, the “PeptidePresentation (presentation score)” value is “+++”.

Regarding “147 (GLAPGGLAVV; listed as Homo sapiens) [compound 147]”, the “PeptidePresentation (presentation score)” value is “+”.

For the substance “77 (LLHEENFSV; listed as Homo sapiens) [compound 77]”, the “PeptidePresentation (presentation score)” value is “+”.

“227 (ALLKVNQEL; listed as Homo sapiens) [compound 227]”: the “PeptidePresentation (presentation score)” value was “+”.

“243 (GLLDNPELRV; listed as Homo sapiens) [compound 243]”: the “PeptidePresentation (presentation score)” value is given as “+++”.

In the case of “299 (ALLRVTPFI; listed as Homo sapiens) [compound 299]”, the “PeptidePresentation (presentation score)” value is “+”.

Turning to “174 (TLAELGAVQV; listed as Homo sapiens) [compound 174]”, the “PeptidePresentation (presentation score)” value was “+”.

As for “71 (KLLDNWDSV; listed as Homo sapiens) [compound 71]”, the “PeptidePresentation (presentation score)” value is “+++”.

For “76 (LLADIGGDPFAA; listed as Homo sapiens) [compound 76]”, the “PeptidePresentation (presentation score)” value is on record as “+++”.

“204 (KYRLTYAYF; listed as Homo sapiens) [compound 204]”: the “PeptidePresentation (presentation score)” value is recorded as “++”.

In the case of “53 (GLIHLEGDTV; listed as Homo sapiens) [compound 53]”, the “PeptidePresentation (presentation score)” value is “+++”.

As for “108 (TLLKKISEA; listed as Homo sapiens) [compound 108]”, the “PeptidePresentation (presentation score)” value is listed as “+++”.

In the case of “2 (KLQAGTVFV; listed as Homo sapiens) [compound 2]”, the “PeptidePresentation (presentation score)” value was “+++”.

Consider “75 (KQMEPLHAV; listed as Homo sapiens) [compound 75]”, for which the “PeptidePresentation (presentation score)” value is reported as “+”.

As to “200 (AYLLQPSQF; listed as Homo sapiens) [compound 200]”, the “PeptidePresentation (presentation score)” value is reported as “+++”.

As for “219: peptide found in PLIN2 (gene looked up) (GVMAGDIYSV; listed as Homo sapiens) [compound 219]”, the “PeptidePresentation (presentation score)” value is reported as “+”.

As for “33 (LLHGHIVEL; listed as Homo sapiens) [compound 33]”, the “PeptidePresentation (presentation score)” value is “+”.

As to “12 (FLAELAYDL; listed as Homo sapiens) [compound 12]”, the “PeptidePresentation (presentation score)” value was “+++”.

Regarding “201 (AYVNTFHNI; listed as Homo sapiens) [compound 201]”, the “PeptidePresentation (presentation score)” value is “+++”.

Take “122 (YLSQAADGAKVL; listed as Homo sapiens) [compound 122]”: the “PeptidePresentation (presentation score)” value is “+++”.

For the substance “40 (ALLAEGITWV; listed as Homo sapiens) [compound 40]”, the “PeptidePresentation (presentation score)” value is “+”.

Take “107 (TLGQFYQEV; listed as Homo sapiens) [compound 107]”: the “PeptidePresentation (presentation score)” value was “+++”.

In the case of “188 (RYSAGWDAKF; listed as Homo sapiens) [compound 188]”, the “PeptidePresentation (presentation score)” value is on record as “+”.

For “168 (SLAVLVPIV; listed as Homo sapiens) [compound 168]”, the “PeptidePresentation (presentation score)” value was “+”.

With “212 (VYGDVISNI; listed as Homo sapiens) [compound 212]”, the “PeptidePresentation (presentation score)” value is listed as “+++”.

As to “85 (RILPKVLEV; listed as Homo sapiens) [compound 85]”, the “PeptidePresentation (presentation score)” value is recorded as “+”.

Regarding “322 (ILYDIPDIRL; listed as Homo sapiens) [compound 322]”, the “PeptidePresentation (presentation score)” value is “+”.

Turning to “162 (RLMSALTQV; listed as Homo sapiens) [compound 162]”, the “PeptidePresentation (presentation score)” value is given as “++”.

For the substance “167 (SLAESSFDV; listed as Homo sapiens) [compound 167]”, the “PeptidePresentation (presentation score)” value is “++”.

Take “253 (RVPPPPQSV; listed as Homo sapiens) [compound 253]”: the “PeptidePresentation (presentation score)” value was “+”.

Turning to “205 (VYGLQRNLL; listed as Homo sapiens) [compound 205]”, the “PeptidePresentation (presentation score)” value was “+”.

Consider “163 (RLTESVLYL; listed as Homo sapiens) [compound 163]”, for which the “PeptidePresentation (presentation score)” value is “++”.

On to “56 (GVLPGLVGV; listed as Homo sapiens) [compound 56]”, for which the “PeptidePresentation (presentation score)” value is listed as “+”.

For the substance “11 (SLSQELVGV; listed as Homo sapiens) [compound 11]”, the “PeptidePresentation (presentation score)” value is on record as “+”.

For “241 (FVLPLLGLHEA; listed as Homo sapiens) [compound 241]”, the “PeptidePresentation (presentation score)” value was “++”.

For the substance “314 (YLAPFLRNV; listed as Homo sapiens) [compound 314]”, the “PeptidePresentation (presentation score)” value is “+”.

For “130 (ALDAGAVYTL; listed as Homo sapiens) [compound 130]”, the “PeptidePresentation (presentation score)” value is listed as “++”.

Consider “79 (LLLSTGYEA; listed as Homo sapiens) [compound 79]”, for which the “PeptidePresentation (presentation score)” value was “+++”.

For “171 (SLIPAVLTV; listed as Homo sapiens) [compound 171]”, the “PeptidePresentation (presentation score)” value is “+”.

On to “98 (SLLSPEHLQYL; listed as Homo sapiens) [compound 98]”, for which the “PeptidePresentation (presentation score)” value is on record as “++”.

As to “44 (ALQDAIRQL; listed as Homo sapiens) [compound 44]”, the “PeptidePresentation (presentation score)” value is listed as “+”.
